# Assay: Comparative oral bioavailability by limited sampling in vivo pharmacokinetics
# Settings: female, BALB/c, mouse, plasma, 10 mg/kg
smiles,measurement,value
"CNc1cc(Nc2cnc(C#N)c(O[C@@H]3CCNC3)n2)ncc1C(=O)OC [PAPC-B-10, (R)-Methyl 6-((5-cyano-6-(pyrrolidin-3-yloxy)pyrazin-2-yl)amino)-4-(methylamino)nicotinate]",concentration at 1 h,≥ 10 nM

# From patent US9403797B2, “5-(pyridin-2-yl-amino)-pyrazine-2-carbonitrile compounds and their therapeutic use” (Cancer Research Technology Limited, priority 2011, dated 2016)
